# Experimental data published in patent US20120219503A1 (GENE TECHNO SCIENCE, published 2012).
# No constants are given. Whether binding was seen depends on the method and setting. Some results given as binding are weak or reduced against the parent protein; the word gives no strength.
# T1: hOPN5-BSA (also: conjugated to BSA, coupling site not given here)
# T1 construct: RGD-containing synthetic peptide coupled to the carrier BSA and coated on ELISA or adhesion plates
# T1 peptide: CVDTYDGRGDSVVYGLRS
# Target: T1, hOPN5-BSA
# Assay: ELISA, hOPN5-BSA coated on the plate
# Procedure: Binding of Ch33E10 and Hu33E10-VH1/VL6 IgG1/κ antibodies to hOPN5-BSA was examined by ELISA. As an antigen, synthetic oligopeptide ([…] provided by Gene Techno Science) conjugated to bovine serum albumin (hOPN5-BSA) was used. In a typical experiment, an ELISA plate was coated with 100 μl/well of 1 μg/ml hOPN5-BSA in 0.2 M Na₂CO₃ buffer (pH 9.4) overnight at 4° C., washed with Wash Buffer, and blocked with 300 μl/well of Blocking Buffer for 1 hr at room temperature. After washing with Wash Buffer, samples appropriately diluted in ELISA Buffer were applied at 100 μl/well in the ELISA plate. After incubating the ELISA plate overnight at 4° C. and washing with Wash Buffer, bound antibodies were detected using 100 μl/well of 1/2,000-diluted HRP-conjugated goat anti-human γ chain polyclonal antibody (SouthernBiotech). After incubating for 1 hr at room temperature and washing with Wash Buffer, color development was performed by adding 100 μl/well of ABTS substrate and stopped with 100 μl/well of 2% oxalic acid. Absorbance was read at 405 nm.
# Binding of Hu33E10-VH5/VL6, Hu33E10-VH7/VL6 and Hu33E10-VH7.8/VL6 antibodies to hOPN5-BSA was compared to that of Ch33E10 by ELISA as described in Section 5. […] In repeated experiments, Hu33E10-VH7/VL6 and Hu33E10-VH7.8/VL6 behaved similarly to each other for binding to hOPN5-BSA.
binder,measurement,value
"Hu33E10-VH5/VL6 IgG1/κ antibody (antibody, V domains shown) VH: EVQLVESGGGLVQPGGSLRLSCAASGFTFTDYYMIWVRQAPGKGLEWLGFIRNKANGYTTEYSASVKGRFTISRDNAKNILYLQMNSLRAEDTAVYYCARGAYWGQGTMVTVSS VL: DIVMTQSPLSLPVTPGEPASISCRSSQSIVHSNGNTYLEWYLQKPGQSPQLLIYRVSNRFSGVPDRFSGSGSGTDFTLKISRVEAEDVGVYYCFQGSFVPWTFGQGTKVEIK",binding,binds
